The list does not hold the whole screen: it gathers some chemical classes. Other doses and runs of a compound may be missing. T/C gives the treated animals as a percentage of the vehicle group. Where survival is the endpoint, this PubChem deposit counts one and a half times the control or more as active, and values a quarter to a half above the control carry no call in these data; other NCI protocols may use other cut-offs. Some T/C values are marked as having no survivor count here; that says nothing about deaths at the dose. Schedules are NCI's codes, read here as Q, the interval in days (D) or hours (H), X, the number of doses. Some schedules carry Z or #; the key to these is not given.
System: BDF1 mice, L1210 Methyl-GAG-resistant leukemia, survival T/C
Assay: NCI In Vivo Anticancer Drug Screen. Data for tumor model L1210 Leukemia resistant to Methyl-GAG; NSC 32946 (subcutaneous) in B6D2F1 (BDF1) mice
Settings: T/C endpoint: mean survival time, schedule: Q01DX Z (ip), vehicle: saline, higher T/C = longer survival
Description: The antitumor activity of compounds was measured in mice bearing transplantable tumors. Survival or tumor size were measured and the results are expressed as the measurement made in the treated group (T) divided by the measurement made in the vehicle treated control group (C). The tumor model used in this assay is L1210 Leukemia resistant to Methyl-GAG; NSC 32946 (subcutaneous) in B6D2F1 (BDF1) mice

CN(CCCl)CCCl
T/C (dose: 0.02 mg/kg/injection): 102 % of control [survivor count not shown] | T/C (dose: 0.08 mg/kg/injection): 96 % of control [survivor count not shown] | T/C (dose: 0.32 mg/kg/injection): 92 % of control [survivor count not shown]

From PubChem BioAssay AID306 (DTP/NCI, 2004)
